Laboratory results as given in PubChem BioAssay AID540276 (National Center for Advancing Translational Sciences (NCATS), 2011).
Out of some 300,000 compounds screened, about 5,400 (1.8%) were called active. This list was built around the results that the source calls inconclusive (neither active nor inactive); the mix of calls is not that of the screen. The call rests on the fitted dose curve; tested in HEK293 cells. A potency beside an inconclusive call is a rough fit, not a confirmed value.

Assay: qHTS for inhibitors of binding or entry into cells for Marburg Virus
Conditions: Marburg virus pseudotyped entry inhibition, cell reporter; activity change, negative = inhibition: at 37.8 µM (top of the series) unless noted
On the % scale 0 is the no-effect control and ±100 the full control effect; potency means the concentration at half of the fitted maximal effect.

Row | SMILES | Potency | activity change, negative = inhibition
1 | COC(=O)/C(=C(O)\C=C\c1ccccc1[N+](=O)[O-])c1nc2ccccc2[nH]1 | inconclusive: 6.31 µM [inhibitor, single point] | 
2 | COc1ccc(/C=N/NC(=O)c2cc(-c3ccc4c(c3)OCO4)n[nH]2)cc1OC | inconclusive: 17.8 µM [inhibitor, single point] | 
3 | CN(Cc1ccc([N+](=O)[O-])cc1)c1ccccc1 | inconclusive: 3.16 µM [inhibitor, full curve] | 
4 | CC(=O)CC(=O)NC(=NC1CCCCC1)Nc1nc(C)cc(C)n1 | inconclusive: 20.6 µM [inhibitor, partial curve] | 
5 | CC(=O)Nc1ccc(S(=O)(=O)Nc2ccc3c(c2)CCC3)cc1 | inconclusive: 12.6 µM [inhibitor, partial curve] | 
6 | CCCCCOP(=O)(OCCCCC)C1(NS(=O)(=O)c2ccccc2)C=CC(=O)c2ccccc21 (configuration not stated) | inconclusive: 12.6 µM [inhibitor, partial curve] | 
7 | CCCN1C(=O)C(Cc2nc3ccccc3c(=O)n2-c2ccccc2)c2ccccc21 (configuration not stated) | inconclusive: 25.1 µM [inhibitor, partial curve, poor fit] | 
8 | Cc1ccccc1CN1C(=O)Nc2ccccc2C(=O)N1C(C)(C)C | inconclusive: 35.5 µM [activator, partial curve, poor fit] | 
9 | COc1ccc(-n2c(=O)c3c4c(sc3n(Cc3ccccc3)c2=O)CN(C(C)=O)CC4)cc1OC | inconclusive: 0.562 µM [inhibitor, full curve, poor fit] | 
10 | CCCCC(CC)C(=O)NCc1ccccc1OC (configuration not stated) | inconclusive: 5.17 µM [inhibitor, full curve] | 
11 | CCOc1ccc(CN(C(=O)c2oc3cc(C)ccc3c2C)C2CCS(=O)(=O)C2)cc1 (configuration not stated) | inconclusive: 20.6 µM [inhibitor, single point] | 
12 | O=C(Nc1ccc(NC(=O)c2ccc(Cl)cc2Cl)cc1)c1cccs1 | inconclusive: 20 µM [inhibitor, single point] | 
13 | COc1cc(/C=C(\C#N)c2nc3ccc(C)cc3[nH]2)c([N+](=O)[O-])cc1OC | inconclusive: 12.6 µM [inhibitor, single point] | 
14 | O=C(NCc1ccc(F)cc1)Nc1cccc(Cl)c1 | inconclusive: 1.26 µM [activator, partial curve, poor fit] | 
15 | CCOc1ccccc1NCc1nnc(-c2ccccc2)o1 |  | inactive: 8.91%
16 | CC(C)(CNC(=O)c1ccccc1F)CNC(=O)c1ccccc1F |  | inactive: 1.56% [at 46.1 µM]
17 | O=C(Oc1cccc2c(O)cccc12)c1ccco1 | inconclusive: 10 µM [activator, partial curve, poor fit] | 

Quoted at random: 2 records from the list.
Row | SMILES | Potency | activity change, negative = inhibition
11 | CCOc1ccc(CN(C(=O)c2oc3cc(C)ccc3c2C)C2CCS(=O)(=O)C2)cc1 (configuration not stated) | inconclusive: 20.6 µM [inhibitor, single point] | 
15 | CCOc1ccccc1NCc1nnc(-c2ccccc2)o1 |  | inactive: 8.91%
